Measured values taken from PubChem BioAssay AID2685 (National Center for Advancing Translational Sciences (NCATS), 2010).
This is one part of the list. Further columns of the screen follow, without active or inactive calls. Compounds called inactive in the main read-out are mostly missing here. The note in brackets gives the kind of curve behind each potency; many fits are weak.

Test: qHTS Assay for Lipid Storage Modulators in Drosophila S3 Cells;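 as to cell number change: cells counted by Cell Tracker Red CMTPX staining in the red channel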
Details: BODIPY lipid droplet fluorescence, 18-24 h; for cell number change: measured here: cell count max response, cells fed with added oleic acid
In short: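 Drosophila S3 cells loaded with oleic acid (400 uM, as added) and compounds at several concentrations; lipid droplets imaged by 488-nm laser-scanning cytometry, 500–530 nm intensity and object ratio to cell channel. Percent activity normalized to 20 uM Triacsin C.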

[1] = measured here: lipid fluorescence (Fed channel) AC50, cells fed with added oleic acid
[2] = measured here: cell number channel AC50, cells fed with added oleic acid

Structure (SMILES)	cell number change	AC50 [1]	AC50 [2]
COc1cc(OC)cc(-c2cc3ncccc3cn2)c1	14.9%	0.116 µM [rising, full curve]	–
CN(C)S(=O)(=O)Oc1ccsc1C(=O)Nc1ccc(Br)cc1	5.69%	20.6 µM [falling, single point]	–
CCCCCCNC(=O)CC(NS(=O)(=O)c1ccc(OC)cc1)C(C)C (centres undefined)	8.52%	11.6 µM [rising, partial curve]	–
COc1cc(/C=C2\CCc3ccccc3C2=O)cc(OC)c1OC	10.1%	7.31 µM [rising, partial curve, poor fit]	6.51 µM [rising, single point]
O=C(CC12CC3CC(CC(C3)C1)C2)NCc1ccccc1	–	0.58 µM [falling, single point]	–
O=C(Nc1nc(-c2ccccc2)cs1)c1cccnc1	20.1%	–	–
COc1ccc(OCC(=O)NNC(=S)NC(=O)C2CC2)cc1	14.4%	29.1 µM [rising, single point]	–
COc1ccc(Cl)cc1NC(=O)CN(C)C(C)C(=O)NC(=O)NC1CCCCC1 (centres undefined)	150%	–	18.4 µM [rising, single point]
COc1cccc(NC(=O)CNC(=O)[C@@H]2Cc3ccccc3CN2C(=O)OC(C)(C)C)c1	-11.6%	–	–
COc1ccc(NC(=O)CN(c2ccc(OC)c(Cl)c2)S(=O)(=O)c2ccccc2)cc1	-25.9%	29.1 µM [falling, single point]	–
COc1ccc(N=C2SC(C(=O)Nc3ccc(OC)cc3)CC(=O)N2CCN2CCOCC2)cc1 (centres undefined)	16.2%	16.4 µM [rising, single point]	–
Cc1cc(=O)n2c(c1C#N)SC1CCCCC12O (centres undefined)	2.2%	–	–
Cc1cc2cc(CN(CC3CCCO3)C(=S)Nc3ccccc3)c(=O)[nH]c2cc1C (centres undefined)	-1.59%	1.3 µM [rising, partial curve]	1.3 µM [falling, full curve, poor fit]
O=c1c(C(c2ccc(Cl)cc2)c2c(O)nc3n(c2=O)CCCS3)c(O)nc2n1CCCS2	-10.8%	4.61 µM [rising, single point]	–
COc1ccc(/C=C/C(=O)N2CCN(c3ccccn3)CC2)cc1	24.1%	–	1.03 µM [rising, full curve, poor fit]
C=CCNC(=O)C12CCC(C)(C(=O)[C@H]1Br)C2(C)C (some centres undefined)	-11.4%	0.116 µM [falling, full curve, poor fit]	–
C=CCN(Cc1cc(OC)ccc1OC)S(=O)(=O)N(C)C	-30.8%	6.51 µM [falling, single point]	6.51 µM [falling, single point]
CC(C)(C)NC(=O)CN(Cc1cccs1)C(=O)c1csnn1	6.01%	–	0.651 µM [falling, full curve, poor fit]
Cc1cc(C)nc(NCCC(=O)O)n1	-26.7%	–	0.82 µM [falling, full curve, poor fit]
COc1ccc(CCNS(=O)(=O)c2ccc3c(c2)NC(=O)CO3)cc1OC	-10.5%	–	–
CC(C)(C)c1ccc(C(=O)NCCCNC(=O)c2ccccn2)cc1	8.57%	–	0.0651 µM [rising, full curve, poor fit]

Structure (SMILES)	cell number change	AC50 [1]	AC50 [2]
COCCNC(=O)c1cccc(OC2CCN(Cc3ccc(F)c(OC)c3)CC2)c1	9.84%	1.16 µM [rising, full curve]	–
CC(=O)N(CN1C(=O)C2CC=CCC2C1=O)c1cccc(Cl)c1 (centres undefined)	3.55%	5.8 µM [rising, full curve]	–
O=C(CN1CCN(S(=O)(=O)c2ccc(Cl)cc2)CC1)N1CCCC1	-14.7%	3.26 µM [falling, single point]	–
O=C(CCC(=O)NC1CCCCC1)Nc1cccnc1	31.2%	29.1 µM [rising, single point]	–
CN1/C(=C\C(=O)c2cccnc2)Sc2ccccc21	6.6%	7.31 µM [rising, single point]	–
CCCN(C(=O)COc1ccc(Cl)cc1Cl)c1c(N)n(Cc2ccccc2)c(=O)[nH]c1=O	-17.2%	1.12 µM [falling, full curve, poor fit]	–
Nc1c(C(=O)c2ccccc2)sc2nsc(SCCN3CCOCC3)c12	5.12%	20.6 µM [falling, single point]	–
O=C(NC1CC(=O)N(c2cccc(F)c2)C1)C(=O)c1c[nH]c2ccccc12 (centres undefined)	–	4.11 µM [rising, partial curve, poor fit]	–
COc1cccc(CCNC(=O)C2CCCN(c3ncnc4c3nc3n4CCCCC3)C2)c1OC (centres undefined)	3.05%	6.51 µM [rising, single point]	–
OCCC1CN(CC(c2ccccc2)c2ccccc2)CCN1C1CCCC1 (centres undefined)	0.959%	–	–
Cc1ccc(S(=O)(=O)Nc2c(C)n(C)n(-c3ccccc3)c2=O)cc1C(=O)NCc1ccccn1	27.7%	29.1 µM [rising, single point]	–
CSc1ncc(C(=O)Nc2ccccc2C)c(C)n1	3.55%	–	4.11 µM [rising, single point]
CCN1C(=O)/C(=C\c2nc3ccccc3c(=O)n2-c2ccccc2)c2ccccc21	-1.57%	29.1 µM [falling, single point]	–
CC1CCN(c2nc(Cl)nc(Nc3ccc([N+](=O)[O-])cc3)n2)CC1	5.04%	0.366 µM [rising, partial curve, poor fit]	0.366 µM [rising, partial curve, poor fit]
O=C(CC1CCCCC1)NCc1ccc(F)cc1	8.67%	–	–
CC(SC1CCCC1)C(=O)Nc1ccnn1C(C)C (centres undefined)	-17.6%	0.0058 µM [falling, full curve, poor fit]	–
CC(NS(=O)(=O)c1cccc(C(=O)O)c1)C12CC3CC(CC(C3)C1)C2 (centres undefined)	-17.6%	–	–
CCCC(=O)NC1CCCc2c1cnn2-c1ccc(C)c(C)c1 (centres undefined)	-53.9%	–	1.64 µM [falling, full curve]
COc1ccccc1C(CCN(Cc1cccs1)C(C)=O)c1ccco1 (centres undefined)	-14.8%	2.31 µM [rising, full curve, poor fit]	–
CC1CCCC(C)N1CC(C)(C)NS(=O)(=O)c1ccc(Cl)cc1 (centres undefined)	-33.9%	–	–
COC(=O)/C(C#N)=C/c1c(N2CCCCCC2)nc2c(C)cccn2c1=O	30.6%	0.58 µM [rising, single point]	14.6 µM [rising, single point]

As entered above:
cell number change with `Cc1cc2cc(CN(CC3CCCO3)C(=S)Nc3ccccc3)c(=O)[nH]c2cc1C` (centres undefined) is entered as -1.59%
cell number change with `CC(C)(C)NC(=O)CN(Cc1cccs1)C(=O)c1csnn1` is entered as 6.01%
AC50 [2] with `CC1CCN(c2nc(Cl)nc(Nc3ccc([N+](=O)[O-])cc3)n2)CC1` is entered as 0.366 µM [rising, partial curve, poor fit]

Remaining list, next part.

Structure (SMILES)	cell number change	AC50 [1]	AC50 [2]
CCOc1ccc(-c2nnc(N(CC)C(=O)C3CCC3)s2)cc1	87.6%	0.13 µM [rising, full curve, poor fit]	29.1 µM [rising, single point]
COc1ccc(OC)c(NC(=O)C(C)N2c3cccc4cccc(c34)S2(=O)=O)c1 (centres undefined)	–	3.16 µM [falling, partial curve, poor fit]	6.51 µM [rising, single point]
COc1ccccc1N(CC(=O)NC1CCCC1)C(=O)CNC(=O)c1cccs1	-24.8%	0.206 µM [falling, full curve, poor fit]	–
N#Cc1c(NC(=O)CSc2nnc(-c3ccncc3)n2CC2CCCO2)sc2c1CCCC2 (centres undefined)	50.9%	4.11 µM [rising, single point]	0.58 µM [rising, full curve]
COc1ccc(-c2cn(CCO)c(-c3ccc(Cl)nc3)n2)cc1	18.7%	6.51 µM [rising, partial curve]	–
O=C1CCN(S(=O)(=O)c2ccc(Cl)cc2)CC1	3.23%	–	–
O=C(NCC1CCCO1)c1ccc(COc2ccc(Br)cc2)cc1 (centres undefined)	6.66%	–	0.92 µM [rising, full curve, poor fit]
O=C(/C=N\O)NCCCNCc1ccccc1	-0.13%	3.66 µM [rising, partial curve, poor fit]	–
O=C(NCc1ccc(F)cc1)C1CCN(S(=O)(=O)c2ccc(Br)s2)CC1	-12.7%	2.31 µM [rising, partial curve]	–
COc1ccc(NC(=O)CN(C)C(=O)c2ccc(=O)[nH]c2)cc1	13.7%	1.46 µM [falling, partial curve, poor fit]	–
Cc1ccc2nc(-c3ccc(-c4ccccn4)s3)cn2c1	0.774%	–	0.326 µM [rising, full curve, poor fit]
CCn1cc(-c2cc(C(=O)O)on2)c(C)n1	-0.294%	6.51 µM [falling, single point]	6.51 µM [falling, single point]
CC(CC(=O)O)n1nnc2ccccc21 (centres undefined)	-26.6%	0.13 µM [falling, full curve, poor fit]	0.0651 µM [falling, full curve, poor fit]
C/C=C/C(=O)OCC(=O)Nc1cc(OC)c([N+](=O)[O-])cc1C	32.2%	–	29.1 µM [rising, single point]
Cn1c(SCC(N)=O)nnc1C1CCN(C(=O)NC2CCCCC2)CC1	4.42%	0.517 µM [falling, full curve]	–
O=C(N/N=C(\c1ccccc1)c1cccnc1)C(O)(c1ccccc1)c1ccccc1	8.91%	–	–
CC1CN(S(=O)(=O)c2cccc(C(=O)OCC(=O)NCc3ccccc3)c2)CC(C)O1 (centres undefined)	20.2%	0.0411 µM [rising, full curve, poor fit]	–
COc1ccc(Nc2nnc(SCC(=O)NC(=O)Nc3ccc4c(c3)OCCO4)s2)cc1	85.5%	–	29.1 µM [rising, partial curve]
Cc1cc(OC(=O)c2ccccc2[N+](=O)[O-])c([N+](=O)[O-])c(=O)[nH]1	31.4%	–	36.6 µM [rising, partial curve, poor fit]
